Source: paper doi:10.1101/2020.04.07.031013
Like-named read-outs stand apart in the source and are kept apart here. No constants are given. Whether binding was seen depends on the method and setting. In cells and extracts the contact can be indirect. Some binding calls cover weakened binding; strength is not graded here.

Protein sequences, listed by entry. Tags and fused reporters are not part of them. Residues count along the entry.
UniProt Q8DVX3, residues 21-271: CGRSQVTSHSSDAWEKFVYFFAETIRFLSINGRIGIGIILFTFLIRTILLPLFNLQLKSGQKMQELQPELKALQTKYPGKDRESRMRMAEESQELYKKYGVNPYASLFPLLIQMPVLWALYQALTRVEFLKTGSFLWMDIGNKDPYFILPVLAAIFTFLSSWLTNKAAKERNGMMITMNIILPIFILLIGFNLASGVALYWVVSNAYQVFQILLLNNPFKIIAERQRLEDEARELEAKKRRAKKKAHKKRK
UniProt Q8DSP8, residues 24-310: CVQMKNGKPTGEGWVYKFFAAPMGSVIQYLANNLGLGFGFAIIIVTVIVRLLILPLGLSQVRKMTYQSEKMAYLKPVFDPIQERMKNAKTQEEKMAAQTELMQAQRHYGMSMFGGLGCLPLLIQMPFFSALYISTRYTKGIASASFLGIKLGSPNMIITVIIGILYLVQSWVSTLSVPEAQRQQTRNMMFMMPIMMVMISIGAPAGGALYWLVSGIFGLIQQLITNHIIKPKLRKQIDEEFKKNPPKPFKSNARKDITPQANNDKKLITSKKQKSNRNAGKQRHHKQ
UniProt Q8CWX8: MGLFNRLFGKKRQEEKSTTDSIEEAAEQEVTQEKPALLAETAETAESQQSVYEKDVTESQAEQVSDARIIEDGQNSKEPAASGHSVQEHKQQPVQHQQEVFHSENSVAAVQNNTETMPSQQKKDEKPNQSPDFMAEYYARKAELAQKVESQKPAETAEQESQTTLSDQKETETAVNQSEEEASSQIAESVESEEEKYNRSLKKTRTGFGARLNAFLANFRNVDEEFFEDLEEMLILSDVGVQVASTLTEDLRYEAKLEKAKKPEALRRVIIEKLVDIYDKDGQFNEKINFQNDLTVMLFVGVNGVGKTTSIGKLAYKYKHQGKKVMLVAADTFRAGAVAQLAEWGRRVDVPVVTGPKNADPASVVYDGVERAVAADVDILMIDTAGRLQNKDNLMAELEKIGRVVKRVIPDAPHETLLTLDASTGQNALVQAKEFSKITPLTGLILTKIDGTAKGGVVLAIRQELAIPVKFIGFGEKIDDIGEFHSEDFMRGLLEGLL

B1: Ffh (protein, UniProt Q54431 1-516)
chain: MAFESLTERLQGVFKNLRGKRKLSEKDVQEVTKEIRLALLEADVALPVVKEFIKRVRKRAVGHEVIDTLDPSQQIIKIVNEELTAVLGSETAEIEKSSKIPTIIMMVGLQGAGKTTFAGKLANKLVKEENARPLMIAADIYRPAAIDQLKTLGQQINVPVFDMGTEHSAVEIVSQGLAQAKENRNDYVLIDTAGRLQIDEKLMTELRDIKALANPNEILLVVDSMIGQEAANVAREFNQQLEVTGVILTKIDGDTRGGAALSVRQITGKPIKFTGTGEKITDIETFHPDRMSSRILGMGDLLTLIEKASQDYDEQKSAELAEKMRENSFDFNDFIEQLDQVQNMGSMEDILKMIPGMANNPALANVKVDEGEIARKRAIVSSMTPEERENPDLLTPSRRRRIASGSGNTFVNVNKFIKDFNQAKKMMQGVMSGDMNKVMKQMGINPNNMPKNMDSSALEGMMGQGGMPDMSELSGTNMDVSQMFGGGLKGKVGEFAMKQSMKKMAKRMKKAKKRKK

Key:
Assay in all cases: cross-linking
[1] = target: YidC1 (Streptococcus mutans (endogenous in UA159)) (UniProt Q8DVX3)
[2] = target: YidC2 (Streptococcus mutans (endogenous in UA159 and NG8)) (UniProt Q8DSP8)
[3] = target: YidC1 (Streptococcus mutans (endogenous in UA159)) (UniProt Q8DVX3); remark: listed apart in the source

Row | Molecule | binding [1] | binding [2] | binding [3]
1 | FtsY (from UniProt Q8CWX8 1-498) | no binding | – | –
2 | B1 | – | binds | no binding
